# Measurements published in the supplement of paper PMC11732987, “Enantioselective OTUD7B fragment discovery through chemoproteomics screening and high-throughput optimisation” (Communications Chemistry, 2025).
# By UniProt entry, the sequences of proteins in these tests, tags left out. Where a name states a change or a piece, a line headed by the entry shows the natural chain unless it says otherwise.
# UniProt O95163: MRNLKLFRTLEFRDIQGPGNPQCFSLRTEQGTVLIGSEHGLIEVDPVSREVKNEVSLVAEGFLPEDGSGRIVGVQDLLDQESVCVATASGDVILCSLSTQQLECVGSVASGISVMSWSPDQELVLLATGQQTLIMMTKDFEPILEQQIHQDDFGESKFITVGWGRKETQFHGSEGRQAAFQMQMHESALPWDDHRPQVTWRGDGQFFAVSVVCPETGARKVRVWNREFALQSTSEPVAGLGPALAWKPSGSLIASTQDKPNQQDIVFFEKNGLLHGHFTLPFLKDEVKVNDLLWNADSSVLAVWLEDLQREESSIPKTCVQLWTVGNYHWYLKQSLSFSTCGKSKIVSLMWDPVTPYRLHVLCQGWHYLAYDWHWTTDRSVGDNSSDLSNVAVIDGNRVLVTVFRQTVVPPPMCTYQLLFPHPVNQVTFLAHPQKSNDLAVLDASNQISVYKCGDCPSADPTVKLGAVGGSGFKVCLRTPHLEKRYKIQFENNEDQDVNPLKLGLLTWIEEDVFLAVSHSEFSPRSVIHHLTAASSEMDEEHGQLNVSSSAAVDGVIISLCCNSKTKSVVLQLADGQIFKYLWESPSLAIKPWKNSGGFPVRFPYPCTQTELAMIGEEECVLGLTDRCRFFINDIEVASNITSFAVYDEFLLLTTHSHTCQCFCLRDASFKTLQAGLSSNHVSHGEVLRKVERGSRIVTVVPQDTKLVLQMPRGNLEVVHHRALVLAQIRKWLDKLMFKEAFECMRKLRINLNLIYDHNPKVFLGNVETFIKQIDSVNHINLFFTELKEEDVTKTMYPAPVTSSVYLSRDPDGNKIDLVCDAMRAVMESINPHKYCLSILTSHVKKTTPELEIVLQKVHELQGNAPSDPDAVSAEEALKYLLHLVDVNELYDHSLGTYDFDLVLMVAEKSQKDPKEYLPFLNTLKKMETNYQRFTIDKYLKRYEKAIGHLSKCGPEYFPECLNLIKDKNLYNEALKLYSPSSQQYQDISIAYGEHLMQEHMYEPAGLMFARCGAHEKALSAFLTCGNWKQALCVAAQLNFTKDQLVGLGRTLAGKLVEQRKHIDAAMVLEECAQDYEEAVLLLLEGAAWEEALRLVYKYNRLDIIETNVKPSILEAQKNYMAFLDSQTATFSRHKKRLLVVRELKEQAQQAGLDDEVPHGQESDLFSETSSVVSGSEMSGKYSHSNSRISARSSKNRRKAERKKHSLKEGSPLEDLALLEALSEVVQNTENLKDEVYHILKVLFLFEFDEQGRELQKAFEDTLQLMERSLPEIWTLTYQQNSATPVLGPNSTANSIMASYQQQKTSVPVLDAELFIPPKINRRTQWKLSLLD
# UniProt Q15369: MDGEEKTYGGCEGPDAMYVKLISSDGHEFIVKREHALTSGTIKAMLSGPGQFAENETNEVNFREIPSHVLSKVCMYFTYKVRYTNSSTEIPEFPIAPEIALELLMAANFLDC
# UniProt Q9NYP7: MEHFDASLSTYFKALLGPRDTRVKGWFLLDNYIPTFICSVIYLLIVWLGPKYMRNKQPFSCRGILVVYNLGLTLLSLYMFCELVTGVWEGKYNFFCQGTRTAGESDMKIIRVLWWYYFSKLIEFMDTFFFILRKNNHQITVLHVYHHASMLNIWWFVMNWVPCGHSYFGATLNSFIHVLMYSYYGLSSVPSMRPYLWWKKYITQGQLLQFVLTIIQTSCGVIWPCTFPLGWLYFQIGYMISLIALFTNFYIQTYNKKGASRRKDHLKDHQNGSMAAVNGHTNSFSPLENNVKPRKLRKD
# UniProt Q9H2F5: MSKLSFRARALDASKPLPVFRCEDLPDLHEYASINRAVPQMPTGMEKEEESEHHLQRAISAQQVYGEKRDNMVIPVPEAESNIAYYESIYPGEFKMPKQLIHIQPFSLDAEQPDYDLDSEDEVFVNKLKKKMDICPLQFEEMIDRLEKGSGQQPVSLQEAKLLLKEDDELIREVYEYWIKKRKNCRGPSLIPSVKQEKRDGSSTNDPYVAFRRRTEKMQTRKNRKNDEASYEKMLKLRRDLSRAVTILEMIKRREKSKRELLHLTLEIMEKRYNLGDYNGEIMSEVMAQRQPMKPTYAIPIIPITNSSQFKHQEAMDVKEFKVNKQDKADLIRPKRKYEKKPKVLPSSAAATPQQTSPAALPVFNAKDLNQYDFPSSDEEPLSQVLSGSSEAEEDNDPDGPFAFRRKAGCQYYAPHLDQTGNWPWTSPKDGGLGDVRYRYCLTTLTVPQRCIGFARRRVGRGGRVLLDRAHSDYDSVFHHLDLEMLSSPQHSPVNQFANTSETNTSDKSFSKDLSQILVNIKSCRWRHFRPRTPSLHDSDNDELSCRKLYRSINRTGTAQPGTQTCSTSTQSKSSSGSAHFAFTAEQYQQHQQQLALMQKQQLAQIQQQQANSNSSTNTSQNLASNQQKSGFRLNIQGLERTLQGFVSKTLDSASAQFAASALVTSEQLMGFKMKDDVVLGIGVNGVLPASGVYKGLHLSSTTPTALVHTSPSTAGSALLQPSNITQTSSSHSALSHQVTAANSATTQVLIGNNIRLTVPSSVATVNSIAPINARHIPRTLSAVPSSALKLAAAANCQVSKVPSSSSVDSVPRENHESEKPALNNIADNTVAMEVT
# UniProt Q8IV48: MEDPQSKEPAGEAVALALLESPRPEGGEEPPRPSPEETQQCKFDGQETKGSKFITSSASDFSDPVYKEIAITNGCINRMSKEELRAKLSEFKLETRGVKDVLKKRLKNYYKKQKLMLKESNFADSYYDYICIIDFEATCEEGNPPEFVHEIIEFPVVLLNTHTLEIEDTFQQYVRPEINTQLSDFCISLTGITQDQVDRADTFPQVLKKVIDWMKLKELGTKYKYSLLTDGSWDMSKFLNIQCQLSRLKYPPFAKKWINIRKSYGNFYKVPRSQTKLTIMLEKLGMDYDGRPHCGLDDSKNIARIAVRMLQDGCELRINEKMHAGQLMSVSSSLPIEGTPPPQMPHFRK
# UniProt Q9NQT5, whole entry, looked up: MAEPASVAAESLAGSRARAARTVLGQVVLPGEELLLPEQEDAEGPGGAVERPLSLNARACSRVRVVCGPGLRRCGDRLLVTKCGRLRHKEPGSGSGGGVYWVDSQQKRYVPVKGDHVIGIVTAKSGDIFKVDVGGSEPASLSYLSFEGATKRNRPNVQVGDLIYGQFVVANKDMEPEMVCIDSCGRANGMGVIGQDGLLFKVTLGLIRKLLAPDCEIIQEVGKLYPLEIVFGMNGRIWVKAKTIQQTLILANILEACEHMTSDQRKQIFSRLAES
# UniProt Q6IA86: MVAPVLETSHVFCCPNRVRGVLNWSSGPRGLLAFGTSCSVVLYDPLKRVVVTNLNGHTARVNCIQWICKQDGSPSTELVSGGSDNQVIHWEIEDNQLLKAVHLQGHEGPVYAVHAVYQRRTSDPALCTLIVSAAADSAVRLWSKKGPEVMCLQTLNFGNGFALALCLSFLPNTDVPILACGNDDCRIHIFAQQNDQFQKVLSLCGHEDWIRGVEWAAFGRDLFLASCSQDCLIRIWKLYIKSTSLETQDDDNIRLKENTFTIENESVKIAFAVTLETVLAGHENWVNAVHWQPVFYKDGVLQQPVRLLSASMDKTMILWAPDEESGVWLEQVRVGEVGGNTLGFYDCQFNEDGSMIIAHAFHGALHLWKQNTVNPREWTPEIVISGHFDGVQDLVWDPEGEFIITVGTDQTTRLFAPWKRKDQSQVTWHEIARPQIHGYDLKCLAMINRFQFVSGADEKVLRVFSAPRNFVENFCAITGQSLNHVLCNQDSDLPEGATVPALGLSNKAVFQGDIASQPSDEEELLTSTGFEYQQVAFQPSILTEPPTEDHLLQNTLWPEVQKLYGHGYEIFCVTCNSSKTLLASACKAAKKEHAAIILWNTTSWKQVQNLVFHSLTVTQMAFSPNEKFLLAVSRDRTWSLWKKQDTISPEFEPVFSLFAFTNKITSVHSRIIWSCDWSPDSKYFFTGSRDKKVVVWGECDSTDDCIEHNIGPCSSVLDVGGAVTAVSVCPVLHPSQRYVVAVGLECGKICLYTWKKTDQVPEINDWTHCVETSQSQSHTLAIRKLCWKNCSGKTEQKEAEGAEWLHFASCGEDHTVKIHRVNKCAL
# UniProt P28715: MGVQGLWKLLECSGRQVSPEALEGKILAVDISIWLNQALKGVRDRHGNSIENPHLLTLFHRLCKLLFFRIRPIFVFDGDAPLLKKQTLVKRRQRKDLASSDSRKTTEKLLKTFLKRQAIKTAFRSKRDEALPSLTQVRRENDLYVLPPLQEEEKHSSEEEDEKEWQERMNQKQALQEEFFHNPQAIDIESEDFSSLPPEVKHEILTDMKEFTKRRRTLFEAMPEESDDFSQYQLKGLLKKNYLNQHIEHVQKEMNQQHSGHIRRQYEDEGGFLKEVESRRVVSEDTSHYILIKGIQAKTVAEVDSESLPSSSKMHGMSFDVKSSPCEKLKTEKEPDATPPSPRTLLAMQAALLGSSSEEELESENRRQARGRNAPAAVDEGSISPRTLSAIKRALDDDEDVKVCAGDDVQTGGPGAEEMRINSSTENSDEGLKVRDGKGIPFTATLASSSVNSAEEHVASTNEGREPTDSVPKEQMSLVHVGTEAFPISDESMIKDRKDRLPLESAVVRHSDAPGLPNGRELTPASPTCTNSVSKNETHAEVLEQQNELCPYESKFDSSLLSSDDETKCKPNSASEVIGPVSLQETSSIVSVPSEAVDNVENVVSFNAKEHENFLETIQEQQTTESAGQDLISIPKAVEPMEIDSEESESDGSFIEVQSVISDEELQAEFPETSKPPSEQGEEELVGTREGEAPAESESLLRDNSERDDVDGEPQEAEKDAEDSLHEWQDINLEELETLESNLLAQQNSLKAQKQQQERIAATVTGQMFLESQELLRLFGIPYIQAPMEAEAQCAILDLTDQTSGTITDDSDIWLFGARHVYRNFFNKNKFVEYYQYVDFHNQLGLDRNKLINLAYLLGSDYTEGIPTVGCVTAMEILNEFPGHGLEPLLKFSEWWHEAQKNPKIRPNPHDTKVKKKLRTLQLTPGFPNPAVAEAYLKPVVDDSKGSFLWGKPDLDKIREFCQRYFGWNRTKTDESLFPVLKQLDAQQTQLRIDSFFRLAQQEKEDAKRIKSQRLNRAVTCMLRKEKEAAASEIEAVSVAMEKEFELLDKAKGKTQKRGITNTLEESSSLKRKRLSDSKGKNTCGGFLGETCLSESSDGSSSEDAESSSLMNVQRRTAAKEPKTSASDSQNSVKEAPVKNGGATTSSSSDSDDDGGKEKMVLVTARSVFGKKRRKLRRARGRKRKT
# UniProt Q96EK7: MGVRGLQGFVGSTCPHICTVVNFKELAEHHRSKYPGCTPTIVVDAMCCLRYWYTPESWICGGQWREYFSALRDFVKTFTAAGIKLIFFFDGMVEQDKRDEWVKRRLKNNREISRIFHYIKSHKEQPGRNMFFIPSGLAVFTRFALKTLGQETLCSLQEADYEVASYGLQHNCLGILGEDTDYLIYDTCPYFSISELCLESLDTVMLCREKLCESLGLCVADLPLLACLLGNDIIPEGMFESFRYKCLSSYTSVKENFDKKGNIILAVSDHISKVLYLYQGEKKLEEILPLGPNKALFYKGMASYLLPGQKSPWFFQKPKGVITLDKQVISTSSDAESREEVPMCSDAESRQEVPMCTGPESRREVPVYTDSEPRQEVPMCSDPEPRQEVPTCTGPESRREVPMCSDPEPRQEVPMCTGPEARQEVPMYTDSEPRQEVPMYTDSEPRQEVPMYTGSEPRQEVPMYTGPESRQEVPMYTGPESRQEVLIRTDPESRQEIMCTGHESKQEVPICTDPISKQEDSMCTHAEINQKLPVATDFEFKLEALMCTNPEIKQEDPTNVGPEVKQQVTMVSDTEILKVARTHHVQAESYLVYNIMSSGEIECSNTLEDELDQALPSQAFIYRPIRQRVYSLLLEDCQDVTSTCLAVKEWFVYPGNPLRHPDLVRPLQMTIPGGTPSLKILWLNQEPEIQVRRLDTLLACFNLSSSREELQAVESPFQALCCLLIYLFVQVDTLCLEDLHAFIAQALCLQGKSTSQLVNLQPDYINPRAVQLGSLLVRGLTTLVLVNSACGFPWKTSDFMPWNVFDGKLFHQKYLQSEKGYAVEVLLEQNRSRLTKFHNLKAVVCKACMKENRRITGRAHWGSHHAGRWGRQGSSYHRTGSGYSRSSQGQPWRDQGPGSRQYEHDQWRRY
# UniProt Q96HE7: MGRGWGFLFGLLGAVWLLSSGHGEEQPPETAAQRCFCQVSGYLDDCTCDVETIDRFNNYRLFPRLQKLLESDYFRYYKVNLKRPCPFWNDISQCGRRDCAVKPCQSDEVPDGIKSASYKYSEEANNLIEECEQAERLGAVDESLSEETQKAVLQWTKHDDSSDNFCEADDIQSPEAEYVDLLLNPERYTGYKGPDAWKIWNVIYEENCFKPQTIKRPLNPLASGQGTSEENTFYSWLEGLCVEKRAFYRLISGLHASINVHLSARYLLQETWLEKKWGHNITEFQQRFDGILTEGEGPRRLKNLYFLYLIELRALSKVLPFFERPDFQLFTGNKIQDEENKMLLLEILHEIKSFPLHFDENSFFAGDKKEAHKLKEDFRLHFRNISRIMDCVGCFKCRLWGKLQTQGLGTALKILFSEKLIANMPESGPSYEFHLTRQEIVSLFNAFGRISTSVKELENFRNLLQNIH
# This is one part of the list. The data scatter; read single values as rough.
# Compound: ClCC(=O)N[C@H]1CCCc2ccccc12
# Test: log2 mean competition ratio of IA-DTB cysteine labelling (DMSO/compound) (log2 ratio); higher = stronger cysteine engagement by compound
# Conditions: 50 µM; treatment time: 4 h; cell line lysate: HEK293T
# Method: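 IA-DTB competitive cysteine chemoproteomics in HEK293T RIPA lysate. Lysates were treated with compound 29 or 30 at 50 or 200 µM for 4 h, then IA-DTB (500 µM, 1 h), trypsin-digested, NeutrAvidin-enriched and analysed by diaPASEF. Competition ratio = intensity DMSO / intensity compound (n=4 treated, n=64 DMSO); binding: mean log2 CR ≥ 1 and p ≤ 0.05 plus QC filters. Target is the cysteine site.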
row,Target,log2 mean competition ratio
1,ERCC6L C982 (UniProt Q2NKX8),0.145
2,ELP1 C744 (UniProt O95163),0.366
3,ELOC C11 (UniProt Q15369),0.0464
4,EXD2 C566 (UniProt Q9NVH0),0.148
5,ELOVL5 C96 (UniProt Q9NYP7),0.0993
6,EPC1 C566 (UniProt Q9H2F5),-0.189
7,FAM241A C2 (UniProt Q8N8J7),0.107
8,ERI1 C314 (UniProt Q8IV48),-0.000197
9,EXOSC3 C67 (UniProt Q9NQT5),0.057
10,EXOC4 C100 (UniProt Q96A65),0.198
11,ERCC2 C155 (UniProt P18074),-0.0804
12,ELP2 C746 (UniProt Q6IA86),0.108
13,EPG5 C1538 (UniProt Q9HCE0),-0.607
14,ESCO1 C515,-0.255
15,EPHA3 C760 (UniProt P29320),-0.113
16,ERCC8 C88 (UniProt Q13216),-0.14
17,ERCC5 C529 (UniProt P28715),-0.102
18,FAM120B C416 (UniProt Q96EK7),-0.0103
19,FANCL C12 (UniProt Q9NW38),-0.107
20,ERO1A C131 (UniProt Q96HE7),-0.444

# Same assay, conditions: 200 µM; treatment time: 4 h; cell line lysate: HEK293T
row,Target,log2 mean competition ratio
1,ERCC6L C982 (UniProt Q2NKX8),-0.048
2,ELP1 C744 (UniProt O95163),-0.273
3,ELOC C11 (UniProt Q15369),-0.142
4,EXD2 C566 (UniProt Q9NVH0),-0.417
5,ELOVL5 C96 (UniProt Q9NYP7),-0.183
6,EPC1 C566 (UniProt Q9H2F5),0.225
7,FAM241A C2 (UniProt Q8N8J7),0.237
8,ERI1 C314 (UniProt Q8IV48),0.213
9,EXOSC3 C67 (UniProt Q9NQT5),-0.291
10,EXOC4 C100 (UniProt Q96A65),-0.083
11,ERCC2 C155 (UniProt P18074),0.0163
12,ELP2 C746 (UniProt Q6IA86),-0.199
13,EPG5 C1538 (UniProt Q9HCE0),0.0861
14,ESCO1 C515,0.0803
15,EPHA3 C760 (UniProt P29320),0.283
16,ERCC8 C88 (UniProt Q13216),-0.1
17,ERCC5 C529 (UniProt P28715),-0.384
18,FAM120B C416 (UniProt Q96EK7),0.159
19,FANCL C12 (UniProt Q9NW38),0.519
20,ERO1A C131 (UniProt Q96HE7),0.19
